From paper PMC7326958
Results are given in words; binding and its absence hold for the method and conditions named. In cells and extracts the contact can be indirect. Here binding means that the protein was enriched with, or labelled near, the bait; the list need not be complete.

By UniProt entry, the sequences of proteins in these tests, tags left out.
UniProt Q96DH6: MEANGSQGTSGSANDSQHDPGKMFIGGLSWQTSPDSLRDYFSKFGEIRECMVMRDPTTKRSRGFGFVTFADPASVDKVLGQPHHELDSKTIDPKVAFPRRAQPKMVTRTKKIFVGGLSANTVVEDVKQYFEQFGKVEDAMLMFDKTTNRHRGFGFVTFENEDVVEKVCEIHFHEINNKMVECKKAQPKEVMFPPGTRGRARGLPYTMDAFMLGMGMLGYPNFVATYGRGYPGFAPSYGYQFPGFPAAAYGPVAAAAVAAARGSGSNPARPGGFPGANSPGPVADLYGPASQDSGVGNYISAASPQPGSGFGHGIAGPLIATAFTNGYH
UniProt Q03135: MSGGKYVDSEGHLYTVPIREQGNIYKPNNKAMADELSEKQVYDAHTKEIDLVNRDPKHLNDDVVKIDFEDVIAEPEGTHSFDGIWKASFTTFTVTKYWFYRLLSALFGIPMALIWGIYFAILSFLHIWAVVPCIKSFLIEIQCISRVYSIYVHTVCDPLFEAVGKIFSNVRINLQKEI

Target: Musashi-2 (MSI2), endogenous (human (endogenous in ST8814)) (UniProt Q96DH6)
Assay: affinity purification with mass spectrometry; immunoprecipitation of MSI2, 10% SDS-PAGE, Coomassie staining, gel cut into four segments, shotgun proteomics (Orbitrap Q Exactive HF-X), search against Homo sapiens UniProt; cells not given

With “Caveolin-1 (CAV1), endogenous (from UniProt Q03135 1-178)” the binding was “binds”.
